Test results reported in patent US9844578B2, “Accelerated healing of eye injuries by angiotensin peptides” (UNIVERSITY OF SOUTHERN CALIFORNIA, priority 2013, dated 2017).
Like-named read-outs stand apart in the source and are kept apart here. Not every detail of the peptide structures is certain; ends, links or a residue may be inferred. Residues, ends and D or L forms follow the SMILES beside them.

Assays:
[1] = tested on: full-thickness corneal incision; assay: Corneal healing after full-thickness corneal incision in rabbit: oblique light exam, Seidel's test, confocal microscopy, in vivo leakage pressure (Example 2); details: for In vivo leakage pressure, mean: Day 7, three animals, vehicle 38.7±3.2; for animals with conjunctival discharge on Day 4 (oblique light examination): OD conjunctival, vehicle 2; for Day on which all animals had fully formed AC: vehicle Day 14
[2] = tested on: full-thickness corneal incision; assay type: in vivo, rabbit; details: for Seidel's Test (for wound leakage): leakage on the first days: 1 drop daily into conjunctival sac; for Seidel's Test (for wound leakage): no leakage from the day / Corneal Wound Edema at day 7 / Corneal Wound Edema: persisted for the first days after surgery: 1 drop daily; for Corneal Wound Edema at day 7 / Corneal Wound Edema: persisted for the first days after surgery: clinical observation
Method: Animal Preparation and Procedure:
Before each procedure, the rabbits were anesthetized with a subcutaneous injection of a mixture of ketamine hydrochloride (50-80 mg/kg) and xylazine hydrochloride (5-9 mg/kg). The animal was prepared for sterile surgery conducted under aseptic conditions. Periorbital area was cleaned using 5% povidone iodine solution and a drop of this solution was instilled into the fornix and a speculum was used to hold the eyelids open. Using corneal blade (Keratome 3.2 mm), a clear corneal full-thickness tunnel was created in the same manner as in human phacoemulsification surgery. To prevent the globe collapse after corneal tunnel creation, a small amount of viscoelastic was injected in the anterior chamber through a paracentesis. Gentamicin 25 mg, and dexamethasone 2 mg were injected subconjunctivally. Post-operatively, analgesia was administered. Animals allocated to the treatment group were treated with 1 drop (approximately 50 μl) of the active drug (0.03% or 0.3% Nle3 A(1-7) in 2% hydroxyethyl cellulose in 0.05 M phosphate buffer, pH 6.5) under investigation instilled into the conjunctival sac daily (using a dropper throughout the follow-up period. On the other hand, animals allocated to the control group will be treated with vehicle (2% hydroxyethyl cellulose in 0.05 M phosphate buffer, pH 6.5) eyedrops daily throughout the follow-up period.
These ocular follow-up examinations were done while the animal was under anesthesia as described above. Anterior segment imaging includes red free picture and anterior segment fluorescein imaging using Spectralis (Heildelberg Engineering, Germany) where sequential photos are taken after one drop of 10% fluorescein (Akorn Abit Springs, La.) was instilled in the conjunctival sac and a slight pressure was applied to the globe. This is more commonly known as Seidel's test in which fluorescein strip containing 10% fluorescein was applied topically to the affected area and was examined with a cobalt blue filter. At this point, the fluorescein appears green in color. Any changes in color or surface of the fluorescence area indicate the presence of conical leakage. This imaging data were used to assess the degree of corneal wound healing as well as extent of wound leak. Measurement of the intraocular pressure was performed using Tonopen-AVIVA (TPA, Reichert Inc.).
The injury was also imaged using involved using a Heidelberg Retina Tomograph (HRT) instrument. This is a confocal scanning laser ophthalmoscope which was converted into a confocal corneal microscope using an additional microscope lens which attached to the standard lens. This additional lens enabled the HRT to image cells and cell layers within the cornea to allow an in-life phase assessment of the healing and structure of the cornea to allow detailed views of the conical structure and pathology.

SMILES: CCCC[C@H](NC(=O)[C@H](CCCNC(=N)N)NC(=O)[C@@H](N)CC(=O)O)C(=O)N[C@@H](Cc1ccc(O)cc1)C(=O)N[C@H](C(=O)N[C@@H](Cc1c[nH]cn1)C(=O)N1CCC[C@H]1C(=O)O)[C@@H](C)CC [Nle3-A(1-7), Asp-Arg-Nle-Tyr-Ile-His-Pro] (HELM PEPTIDE1{D.R.[Nle].Y.I.H.P}$$$$V2.0)
- animals without positive Seidel's test result on Day 5 ([1]; 0.03%, 5/group): 1 animals
- animals with no observed leakage at oblique light exam on Day 6 ([1]; 0.03%, Day 6): three
- In vivo leakage pressure, mean ([1]; 0.03%): 77.3±3.2 mmHg
- animals with conjunctival discharge on Day 4 (oblique light examination) ([1]; 0.03%, 5/group): 1 animal
- animals having full AC on Day 6 ([1]; 0.03%, of the 5 animals, Day 6): 4 animals
- Day on which all animals had fully formed AC ([1]; 0.03%): 8 days
- Anterior chamber (AC) formation first noted on Day ([1]; 0.3%): 4 days
- anterior chamber formation compared to vehicle control ([1]; 0.3% and 0.03%): faster
- strength of healing compared to vehicle control ([1]; 0.3% and 0.03%): increased
- amount of pressure to cause leakage compared with vehicle-treated wounds ([1]; 0.3% and 0.03%, Day 7): approximately twice
- animals without positive Seidel's test result on Day 5 ([1]; 0.3%, 5/group): 2 animals
- animals having fully formed AC on Day 6 ([1]; 0.3%, 5/group, Day 6): 5 animals
- leakage at oblique light exam on Day 6 ([1]; 0.3%, Day 6): no observed leakage in any animal
- In vivo leakage pressure, mean ([1]; 0.3%): 79.3±6 mmHg
- animals with conjunctival discharge on Day 4 (oblique light examination) ([1]; 0.3%, 5/group): 1 animal
- Day on which all animals had fully formed AC ([1]; 0.3%): 6 days
- Corneal healing, measured by aqueous leakage in the Seidel's test, occurred by Day ([1]; all treated animals (0.3% and 0.03%)): ≤ 10 days
- Seidel's test result on Day 10 ([1]; all treated animals (0.3% and 0.03%), Day 10, all vehicle animals still leaked with pressure): negative
- distribution of the keratocytes and lamellae ([1]; treated animals, confocal microscopy): Regular distribution
- Confocal microscopy: arrangement of the collagen stromal lamellae in the vicinity of the corneal wound ([1]; two treatment groups (0.3%, 0.03%), after 1 month of daily treatment (FIG. 2), vehicle rough and haphazard): regular arrangement
- Seidel's Test (for wound leakage): leakage on the first days ([2]; 0.03% in 2% HEC vehicle): Leakage on the 1st 3 days
- Seidel's Test (for wound leakage): no leakage from the day ([2]; 0.03%): day-4
- Corneal Wound Edema at day 7 ([2]; 0.03%, listed as Nle3 A(1-7)): very mild
- Corneal Wound Edema at day 7 ([2]; 0.03%, listed as Nle^3-A(1-7)): Mild at day 7, but
- duration of corneal wound leakage compared to vehicle control ([2]; 0.3% and 0.03%): reduction
- healing architecture and fibrosis compared to vehicle control ([2]; 0.3% and 0.03%): normal architecture and no fibrosis
- Seidel's Test (for wound leakage): leakage on the first days ([2]; 0.3% in 2% HEC vehicle): Leakage on the 1st 3 days
- duration of edema and inflammation, comparison of arms ([2]; 0.3% versus 0.03% and vehicle): shortest duration
- Seidel's Test (for wound leakage): no leakage from the day ([2]; 0.3%): 4th day
- Corneal Wound Edema: persisted for the first days after surgery ([2]; 0.3%, listed as Nle3 A(1-7)): 5 days
- Corneal Wound Edema: persisted for the first days after surgery ([2]; 0.3%, listed as Nle^3-A(1-7)): Persisted for the 1st 5 days
- site of incision by HRT evaluation ([2]; Day 10, vehicle: fibrosis and disrupted architecture): the wound was healed and the tissue has a normal appearance and architecture
- time to corneal healing as defined by no leakage on the Seidel's test ([2]; both concentrations (0.03% and 0.3%), daily, vehicle 7 days): 4 days
- Hematoxylin and eosin staining of the incision site ([2]; necropsy day 21, compared to vehicle control (FIG. 1)): normalized architecture with reduced fibrosis
